Test results from PubChem BioAssay AID2417 (National Center for Advancing Translational Sciences (NCATS), 2010).
Screen size: about 140,000 compounds; about 4,300 (3.1%) were called active. The shares of active, inactive and inconclusive entries below differ from those in the screen.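 Rule for the calls: active = readout at or below -70, meaning at least 70% loss of cells showing the perinucleolar compartment, a nuclear body marking cancer cells; inconclusive = readout between -30 and a set limit; inactive = the rest.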

test: High Content Assay for Compounds that inhibit the Assembly of the Perinucleolar Compartment; settings: PC3M PTB-GFP, PNC prevalence imaging, 16 h; at 10 µM; active compounds read low;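 note: plate controls were DMSO wells for no effect and camptothecin positive control wells for full effect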
Method in brief: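 Read-out is percentage of cells bearing a perinucleolar compartment, from automated 20x imaging of fixed, Hoechst-stained PC3M PTB-GFP cells. Cells were seeded 4 h, then exposed 16 h to compound (23 nl of library stock) in duplicate plates.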

Compound | activity change (PNC), negative = inhibition
COC(=O)c1oc2ccc(Cl)cc2c1N | inconclusive: -54.4%
Clc1ccc(-c2nc3nc4ccccc4nc3n2Cc2ccco2)cc1 | inconclusive: -49.3%
CCOC(=O)c1ccc2c(c1)nc(SCC(=O)c1cc3ccccc3o1)n2CC | inactive: -0.543%
COc1cc(C(=O)OCC(=O)Nc2ccc(SC(F)F)cc2)cc(OC)c1OC | inconclusive: -37.6%
COc1ccc2[nH]c3c(c2c1)CCn1c-3nc2ccccc2c1=O | inconclusive: -41%
COc1ccc(-c2cn3cccnc3n2)cc1NC(=O)C1CC1 | inconclusive: -53.7%
COc1cc(OC)c(-c2nn3c(-c4ccncc4)nnc3s2)cc1OC | active: -136%
CCN(CC)S(=O)(=O)c1ccc(Oc2ccccc2)cc1 | inactive: -8.37%
O=C(O)c1cccc(C(=O)O)n1 | inactive: 50%
CCc1ccc2c(c1)C(c1ccc([N+](=O)[O-])cc1)=NNC(c1ccc(F)cc1)=N2 | inconclusive: -45.7%
CCCNC(=O)Cn1cnc2sc(C(=O)N3CCN(c4ccc(F)cc4)CC3)c(C)c2c1=O | inconclusive: -54.9%
COc1cccc(C=Nc2cc(C)cc(C)c2)c1O | inconclusive: -75.8%
CC1=C(C#N)C(C)C2=C(CC(C)(C)CC2=O)N1 (stereo not given) | inconclusive: -53.9%
CN1CCN(c2ccc(NC(=O)c3ccccc3Br)cc2)CC1 | inconclusive: -43.3%
C=CCCCCCCCCC(=O)Nc1c[nH]c(=O)[nH]c1=O | inconclusive: -44.4%
COc1ccc(NC(=O)CSc2ncc(-c3ccc(F)cc3)n2Cc2ccco2)cc1 | inconclusive: -67.9%
CSc1nncc(/C(C)=N\Nc2cccc(C)c2)n1 | inactive: 30.1%
CCCCC(=O)Nc1ccc2c3c(cccc13)C(=O)N2CC | inactive: 23.3%
CC(C)(C)C(=O)N1CCc2cc(-c3csc(N)n3)ccc21 | inactive: 25%
O=C(/C=C/c1cccc(Cl)c1)NCc1cccs1 | inactive: 13.1%
CCCCN(C(=O)NC(=O)Nc1nc2ccc(OC)cc2s1)S(C)(=O)=O | inconclusive: -38%
COc1ccc(/C=C2\CN(Cc3ccccc3)C/C(=C\c3ccc(OC)cc3)C2=O)cc1 | inactive: 44.8%
Cc1ccc(CN(c2ccc(C(=O)NCc3ccc4c(c3)OCO4)cc2)S(C)(=O)=O)cc1 | inconclusive: -36.5%

Compound | activity change (PNC), negative = inhibition
CCN(CC)c1ccc(/C=C2\CCC(/C=N/NC(=O)c3ccc(=O)n(C)c3)=C2N2CCOCC2)cc1 | inconclusive: -41%
C/C(=N\O)C(=O)NCCCn1ccnc1 | inconclusive: -67.8%
CCOC(=O)Cn1nnc(-c2cccc(OC)c2)n1 | inconclusive: -55.4%
Cc1nc(CN2CCOCC2)cc(=O)[nH]1 | inconclusive: -41.5%
COc1ccc2c(c1)O[C@@H](c1cccc(C(F)(F)F)c1)[C@H](OC(=O)N[C@H]1CCCc3ccccc31)C2=O | inconclusive: -56.7%
CCOc1ncccc1C(=O)OCc1nnc(-c2ccccc2)o1 | inactive: -22.5%
O=C(CCn1c(=O)oc2ccccc21)NCCCN1CCN(c2ccc(F)cc2)CC1 | inconclusive: -53.9%
Cc1ccc(Oc2nc3ccccc3n3c(C)nnc23)cc1 | inconclusive: -61%
C=CCN1C(=O)C2C(C(=O)NC3CCCCC3)C3C=CC2(O3)C1C(=O)NC1CCCC1 (stereo not given) | inconclusive: -78.5%
CCOC(=O)c1nn(-c2cccc(C)c2)c2nnc(Cc3ccc(C)cc3)c(=O)n12 | inconclusive: -34.9%
CCOC(=O)N1CCN(C(=O)c2ccc(NC(C)=O)cc2)CC1 | inactive: 48.8%
O=[N+]([O-])c1ccc(Sc2nccn2Cc2ccccc2)c([N+](=O)[O-])c1 | inconclusive: -67.9%
COc1cccc(-c2cc(C(=O)NCCCn3ccnc3)c3ccccc3n2)c1 | inactive: -1.37%
CC(C)c1cc(Nc2cccc(O)c2)cc(C(C)C)c1O | inactive: 17.2%
O=C(NN1C(=O)C2C(c3ccccc3)C=CC(c3ccccc3)C2C1=O)c1cccc(Br)c1 (stereo not given) | inactive: -24.8%
Cc1c(Cl)cnc(NC(=O)COC(=O)c2nn(C)c(=O)c3ccccc23)c1Cl | inactive: -7.32%
COC(=O)N/N=C/c1ccc(-c2ccc(C)c(Cl)c2)o1 | inactive: 3.34%
Cc1noc(/C=C/N(C)C)c1S(=O)(=O)N(C)CC(=O)NC1CCCCC1 | inconclusive: -56.8%
O=C(Nc1ccc(O)c(-c2nc3ccccc3s2)c1)c1cccs1 | inconclusive: -37.2%
CC1Cc2nc(SCC(=O)Nc3ccccc3F)n(C)c(=O)c2S1 (stereo not given) | active: -100%
CN(c1ccc(OCC(=O)OCC(=O)Nc2c(F)c(F)c(F)c(F)c2F)cc1)S(=O)(=O)c1ccc(F)cc1 | active: -107%
Cc1ccc(C)c(NC(=S)NC(NC(=O)Cc2cccc3ccccc23)C(Cl)(Cl)Cl)c1 (stereo not given) | inactive: -27.9%

Filtered by structure: those above with an aryl thioether with sulfur outside any ring
Compound | activity change (PNC), negative = inhibition
CCOC(=O)c1ccc2c(c1)nc(SCC(=O)c1cc3ccccc3o1)n2CC | inactive: -0.543%
COc1cc(C(=O)OCC(=O)Nc2ccc(SC(F)F)cc2)cc(OC)c1OC | inconclusive: -37.6%
COc1ccc(NC(=O)CSc2ncc(-c3ccc(F)cc3)n2Cc2ccco2)cc1 | inconclusive: -67.9%
CSc1nncc(/C(C)=N\Nc2cccc(C)c2)n1 | inactive: 30.1%
O=[N+]([O-])c1ccc(Sc2nccn2Cc2ccccc2)c([N+](=O)[O-])c1 | inconclusive: -67.9%
CC1Cc2nc(SCC(=O)Nc3ccccc3F)n(C)c(=O)c2S1 (stereo not given) | active: -100%
